# PubChem BioAssay AID504444 (National Center for Advancing Translational Sciences (NCATS), 2011)
# Among all 360,000 compounds or so, about 7,500 (2.1%) were called active. This list was built around the results that the source calls inconclusive (neither active nor inactive); the mix of calls is not that of the screen. Calls come from the whole dose curve; as a rule, active = well fitted inhibition curve with a large enough effect; inconclusive = small, poorly fitted or top-dose-only effect, or effect the other way; inactive = flat fitted curve, though single readings scatter. Where the call is inconclusive, the potency comes from a doubtful curve fit.
# Experiment: Nrf2 qHTS screen for inhibitors; note: nearly all actives have a fitted effect of over 60% in size
# Details: A549 ARE-Fluc reporter, luciferase luminescence, 18-24 h; series mostly up to 46 µM
# Method in brief: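 Cells were seeded and rested 2 h, then exposed to compounds for 18-24 h. CellTiter-Fluor was read first as a viability measure. BugLite was added 15 min before the final luminescent read of ARE-luciferase activity in A549 cells.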
# Potency is the fitted concentration of half-maximal effect.
row,Structure (SMILES),Potency
1,O=C(CSc1nnc(-c2ccncc2)n1Cc1ccco1)Nc1nc(-c2ccccc2)cs1,active: 13 µM
2,CC(C)(C)NC(=O)NC(=O)COc1ccc(Br)cc1Br,"inconclusive: 9.2 µM [activator, partial curve]"
3,COc1cccc(CN(C)C(=O)c2cc(S(=O)(=O)NC3CCCCC3)ccc2C)c1OC,"inconclusive: 5.8 µM [falling, full curve, poor fit]"
4,CCOC(=O)c1c(C2CC2)csc1NC(=O)COC(=O)c1cc(OC)c(OC)cc1[N+](=O)[O-],inactive
5,Cc1nnc(SCC(=O)NCc2ccccc2F)c2nn(-c3ccc(Cl)cc3)c(C)c12,"inconclusive: 18.4 µM [falling, single point]"
6,Cc1ccc(Nc2nc(N/N=C/c3c[nH]c4ccccc34)nc(N3CCOCC3)n2)cc1,inactive
7,NCCCNc1ncnc2ccc(-c3ccc4c(c3)OCO4)cc12,inactive
8,O=C(COc1ccccc1Cl)Nc1ccc(C(=O)N2CCCCC2)cc1,"inconclusive: 25.9 µM [falling, single point]"
9,COCCc1nn2c(=O)cc(COC(=O)c3ccc(C(C)(C)C)cc3)nc2s1,"inconclusive: 14.6 µM [falling, single point]"
10,O=c1c2cc(-c3ccccc3)sc2ncn1/N=C/c1ccco1,"inconclusive: 0.366 µM [activator, partial curve]"
11,Cc1ccc(S(=O)(=O)c2nc(-c3ccc(Cl)cc3)oc2N2CCCCCC2)cc1,"inconclusive: 18.4 µM [falling, partial curve, poor fit]"
12,Cc1cccc2cc(CN(CCCO)C(=O)Nc3ccc(Cl)cc3)c(=O)[nH]c12,"inconclusive: 0.058 µM [falling, full curve, poor fit]"
13,Cc1ccc(-c2nc(SCc3ccc(Br)cc3)n3[nH]c(=O)cc3n2)cc1,"inconclusive: 29.1 µM [falling, single point]"
14,COc1ccccc1N1CCN(C(c2ccccc2)c2nnnn2Cc2ccccc2)CC1 (configuration not stated),"inconclusive: 32.6 µM [falling, single point]"
15,Cc1ccc(OCCC(=O)OCC(=O)N2CC(=O)Nc3ccccc32)cc1,"inconclusive: 29.1 µM [falling, single point]"
16,COc1cccc(N/C=C(\C#N)c2ccc(OCCCF)cc2)c1,"inconclusive: 4.11 µM [activator, full curve]"
17,CC(C)c1ccc(/C=N/Nc2ccc(C(=O)O)cc2)cc1,"inconclusive: 0.0651 µM [activator, full curve, poor fit]"
18,CCc1ccc(-c2ccc(C(=O)Oc3ccc(Br)cc3)cc2)nc1,"inconclusive: 1.3 µM [activator, full curve, poor fit]"
19,COc1ccc(-n2c(SC)nc3sc4c(c3c2=O)CCN(C)C4)cc1,"inconclusive: 29.1 µM [falling, single point]"
20,COc1ccc(C(=O)NNC(=S)NC(=O)c2ccco2)cc1,"inconclusive: 11.6 µM [falling, partial curve]"
21,Cc1c(C)n(C)c2ccc(C(=O)NCCCN3CCCCC3)cc12,"inconclusive: 20.6 µM [falling, single point]"

row,Structure (SMILES),Potency
1,Cc1sc2nc(C3CCCCC3)nc(SCC(=O)N3CC(=O)Nc4ccccc43)c2c1C,inactive
2,O=C1C=CC(=O)N1c1ccc(N2CCCCC2)cc1,active: 25.9 µM
3,CC1(c2ccccc2)CC(C)(C)N2C(=O)C3(C(C#N)=C(N)Oc4cc(O)ccc43)c3cccc1c32 (configuration not stated),active: 20.6 µM
4,Cc1cccc(N2C(=O)CCSC23C(=O)N(Cc2ccc(F)cc2)c2ccccc23)c1 (configuration not stated),"inconclusive: 1.46 µM [falling, partial curve, poor fit]"
5,CCc1cccc(NC(=O)CSc2ncc3c(n2)-c2ccccc2N(Cc2ccccc2C)S3(=O)=O)c1,"inconclusive: 29.1 µM [activator, single point]"
6,CCOc1ccc(-c2cc(C(=O)NCc3ccccc3)c3c(-c4ccc(CC)cc4)[nH]nc3n2)cc1,"inconclusive: 29.1 µM [activator, single point]"
7,Cc1ccc(C)c(C(=O)COC(=O)c2ccc(Br)o2)c1,"inconclusive: 29.1 µM [activator, single point]"
8,O=C(CC1(O)C(=O)N(CCc2ccccc2)c2ccc(Br)cc21)c1ccccc1O (configuration not stated),"inconclusive: 29.1 µM [falling, single point]"
9,COc1ccccc1C(C(=O)NC1CCCC1)N(C(=O)c1csnn1)C1CC1 (configuration not stated),inactive
10,CCN1CCN(C(=S)Nc2cc(S(=O)(=O)N(CC)CC)ccc2C)CC1,"inconclusive: 18.4 µM [falling, partial curve]"
11,CN(C)CCNC(=O)C(c1ccccc1)c1ccccc1,inactive
12,CN1CCOc2cc(S(=O)(=O)N3CCN(S(=O)(=O)c4c(F)cccc4F)CC3)cnc21,"inconclusive: 29.1 µM [falling, partial curve, poor fit]"
13,COc1ccc(NC(=O)Cc2csc(C)n2)cc1,"inconclusive: 25.9 µM [activator, single point]"
14,COc1ccc(NC(=O)CN(C)C(=O)Cc2ccc3c(c2)OCCO3)cc1,inactive
15,O=C(/C=C/c1ccc(OC(F)F)cc1)Nc1cccc(S(=O)(=O)NC2=NCCCCC2)c1,active: 18.4 µM
16,COc1ccc(Cc2nnc(N/N=C/c3ccc(O)cc3O)[nH]c2=O)cc1OC,"inconclusive: 29.1 µM [falling, single point]"
17,COc1ccccc1CNC(=O)c1cccc(Nc2nc3ccccc3n3nnnc23)c1,inactive
18,COc1ccccc1NC(=O)c1ccc(NS(=O)(=O)c2ccc(F)c(F)c2F)cc1,"inconclusive: 23.1 µM [falling, partial curve, poor fit]"
19,O=C(NCC(c1ccco1)N1CCCC1)c1cc(S(=O)(=O)N2CCOCC2)ccc1Cl (configuration not stated),inactive
20,CN=C1SC(CC(=O)Nc2ccccc2F)C(=O)N1/N=C/c1ccc(O)c(OC)c1 (configuration not stated),"inconclusive: 32.6 µM [falling, single point]"
21,O=S(=O)(c1ccc(Cl)cc1)N1CCN(C(=S)Nc2ccc(F)c(Cl)c2)CC1,"inconclusive: 23.1 µM [falling, single point]"

# Copied from above for reference:
row,Structure (SMILES),Potency
12,CN1CCOc2cc(S(=O)(=O)N3CCN(S(=O)(=O)c4c(F)cccc4F)CC3)cnc21,"inconclusive: 29.1 µM [falling, partial curve, poor fit]"
13,COc1ccc(NC(=O)Cc2csc(C)n2)cc1,"inconclusive: 25.9 µM [activator, single point]"
